# Test results taken from doi:10.1101/721712.
# Protein sequences, listed by entry. Tags and fused reporters are not part of them.
# UniProt Q9UKV5: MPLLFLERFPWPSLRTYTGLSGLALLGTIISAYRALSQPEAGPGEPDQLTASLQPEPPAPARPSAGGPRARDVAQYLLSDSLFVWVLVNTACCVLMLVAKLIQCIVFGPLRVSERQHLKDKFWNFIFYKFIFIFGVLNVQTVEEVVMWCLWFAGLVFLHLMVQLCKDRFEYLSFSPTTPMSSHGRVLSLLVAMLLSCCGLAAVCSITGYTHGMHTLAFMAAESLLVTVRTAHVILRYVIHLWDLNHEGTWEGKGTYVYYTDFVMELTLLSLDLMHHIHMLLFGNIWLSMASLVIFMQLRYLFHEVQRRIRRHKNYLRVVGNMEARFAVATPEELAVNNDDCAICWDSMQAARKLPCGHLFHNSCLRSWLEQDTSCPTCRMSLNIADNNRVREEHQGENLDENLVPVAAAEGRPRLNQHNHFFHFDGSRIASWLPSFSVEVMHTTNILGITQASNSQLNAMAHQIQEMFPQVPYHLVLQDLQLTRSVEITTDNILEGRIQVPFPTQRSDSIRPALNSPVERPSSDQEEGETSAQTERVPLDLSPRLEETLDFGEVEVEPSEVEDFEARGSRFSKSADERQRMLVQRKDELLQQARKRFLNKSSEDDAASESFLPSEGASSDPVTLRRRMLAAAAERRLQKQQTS
# These are yes or no findings as the source states them, for the method shown. Binding seen in cells or lysates may run through a third protein. Some binding calls cover weakened binding; strength is not graded here. Sequences can lack the tags named with a protein.
# Molecular target: T1, FLAG-tagged KDELR3 (K3-DDK) (human) (UniProt O43731)
# T1 sequence: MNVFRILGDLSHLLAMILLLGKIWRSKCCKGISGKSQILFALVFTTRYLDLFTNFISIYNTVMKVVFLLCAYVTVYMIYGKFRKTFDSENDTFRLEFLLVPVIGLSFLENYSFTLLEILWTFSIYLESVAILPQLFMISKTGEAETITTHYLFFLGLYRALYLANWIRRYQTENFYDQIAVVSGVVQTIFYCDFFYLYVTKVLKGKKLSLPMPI
# Assay: co-IP
row,binding,Substance
1,binds,mCherry tagged gp78 (gp78-mCh) (from UniProt Q9UKV5 1-643) (enzyme)
2,binds,endogenous gp78 (from UniProt Q9UKV5 1-643) (enzyme)
